Changes are numbered by the printed parent chain. Results are given in words; binding and its absence hold for the method and conditions named. Some entries that bind do so weakly or less than the wild type.

Two molecules from patent publication US20210246209A1 (SHANGHAI JUNSHI BIOSCIENCES, published 2021) can be followed below.

In experiment [1] the target is cynomolgus monkey BTLA (cynomolgus monkey). Description: biosensor (Fortebio / SPR as printed), cynomolgus BTLA coupled to chip, antibody 0.12 nM to 90 nM.
The target is the same in experiment [2]. The experiment in a line: sheet shows OD:450nm against Log:ng/mL (ELISA-type readout); the text describes a Fortebio/biosensor assay with BTLA coupled to a chip. (In an ELISA, binding on a coated surface is turned into a signal by an enzyme label.)
In experiment [3] the target is T1, hBTLA (human BTLA protein coated on plates or coupled to a chip) (human) (UniProt Q7Z6A9).
T1 sequence (looked up): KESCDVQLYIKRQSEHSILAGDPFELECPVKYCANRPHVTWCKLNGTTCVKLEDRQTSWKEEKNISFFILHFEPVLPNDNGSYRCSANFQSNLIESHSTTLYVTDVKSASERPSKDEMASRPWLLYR
Description: ELISA, hBTLA coated at 0.5 µg/mL.

In experiment [4] the target is human BTLA expressed on cells (human, UniProt Q7Z6A9 31-289). Description: FACS on 293F cells expressing hBTLA. The protocol: The humanized anti-BTLA antibodies were determined for their binding ability to hBTLA expressed on cells using cell-based flow cytometry (FACS). […] Then the cells were mixed with 50 μL of antibody diluent at different concentrations (initial concentration: 10 μg/mL, 3-fold titration), and incubated at room temperature for 30 minutes. After being washed with an FACS buffer twice, the cells were added with 100 μL of goat anti-human IgG-PE antibody, incubated for 30 minutes away from light, and assayed by FACS after two washes with an FACS buffer. The washed cells were resuspended in 4° C. buffer containing propidium iodide (PI) and 0.02% sodium azide that prevents receptor internalization and analyzed by flow cytometry. Viable cells were gated on the basis of PI positive cells being excluded from the FSC/SSC gate and their geometric mean fluorescence intensity was measured. The data were analyzed using a sigmoidal dose-response model within Prism™ software.
The humanized antibodies hu17, hu18, and hu19 can effectively bind to hBTLA on 293 cells.

B1: humanized antibody hu17 (antibody, V domains shown)
VH: QVQLVQSGAEVKKPGASVKLSCKASGYNFKHTYAHWVRQAPGQGLEWIGRIDPANGNTKYDPKFQGRATMTADTASNTAYLELSSLRSEDTAVYYCVADHYGSSLLDYWGQGTLVTVSS
VL: DIVMTQTPLSLSVTPGQPASISCKSSQSLLDSDGKTYLNWFQQRPGQSPRRLIYLVSKLDSGVPDRFSGSGSGTDFTLKISRVEAEDVGVYYCWQGTYFPYTFGQGTKLEIK
notes: also called hull [sic]; humanized antibody 17
As to B1, the binding entry in experiment [1] and in experiment [2] was “binds” throughout.

B2: humanized antibody hu18 (antibody, IgG4, V domains shown)
VH: B1 VH
VL: B1 VL with I2V
notes: also called JS004; recombinant human anti-BTLA antibody
Consider B2, for which the binding entry in experiment [3] and in experiment [4] was “binds” throughout.
